The target of test [1] is FLAG-Rab18 (overexpressed in C2C12 cells) (mouse) (UniProt P35293). Nature of the test: affinity purification with mass spectrometry.
For test [2] the target is unchanged. The test is described as follows: affinity purification with mass spectrometry. This is another data set of the same source.

Sequences of proteins named here, by UniProt entry; tags and fusion partners are left off.
UniProt P35293: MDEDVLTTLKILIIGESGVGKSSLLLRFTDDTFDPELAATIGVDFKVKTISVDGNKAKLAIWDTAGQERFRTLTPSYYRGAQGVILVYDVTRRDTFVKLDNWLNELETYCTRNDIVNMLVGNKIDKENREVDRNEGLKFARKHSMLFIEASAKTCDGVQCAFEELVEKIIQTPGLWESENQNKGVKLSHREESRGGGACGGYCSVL
UniProt Q9CZW4: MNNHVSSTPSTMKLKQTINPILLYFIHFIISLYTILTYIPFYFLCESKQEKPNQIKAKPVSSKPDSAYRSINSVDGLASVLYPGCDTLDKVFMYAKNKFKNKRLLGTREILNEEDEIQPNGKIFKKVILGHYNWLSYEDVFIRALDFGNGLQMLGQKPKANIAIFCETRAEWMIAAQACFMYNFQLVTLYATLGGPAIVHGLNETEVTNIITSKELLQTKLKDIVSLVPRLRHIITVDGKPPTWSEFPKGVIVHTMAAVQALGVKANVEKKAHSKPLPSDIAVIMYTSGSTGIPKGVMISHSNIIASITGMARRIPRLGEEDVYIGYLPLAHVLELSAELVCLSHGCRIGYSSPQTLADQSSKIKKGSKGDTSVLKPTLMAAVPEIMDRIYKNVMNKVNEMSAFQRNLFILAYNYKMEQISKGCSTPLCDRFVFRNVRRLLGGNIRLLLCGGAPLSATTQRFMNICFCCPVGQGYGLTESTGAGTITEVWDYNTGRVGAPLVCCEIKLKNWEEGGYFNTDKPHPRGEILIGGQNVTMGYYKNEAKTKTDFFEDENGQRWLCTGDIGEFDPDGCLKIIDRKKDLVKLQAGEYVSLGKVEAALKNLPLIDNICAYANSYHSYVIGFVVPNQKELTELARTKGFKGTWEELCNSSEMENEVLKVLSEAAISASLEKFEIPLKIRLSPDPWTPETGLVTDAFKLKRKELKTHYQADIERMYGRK

Where two headings read alike, the source gives them in different places. No constants are given. Whether binding was seen depends on the method and setting. In cells and extracts the contact can be indirect. These calls come from enrichment with a bait or labelling near it, and not all partners need be listed.

As to “acyl-CoA synthetase long-chain family member 3 (ACSL3), endogenous in C2C12 lipid droplets (from UniProt Q9CZW4 1-720) (enzyme)”, the binding result in test [1] was “binds”.

B1: perilipin 2 (PLIN2), endogenous in C2C12 lipid droplets (protein, UniProt P43883 1-425)
chain: MAAAVVDPQQSVVMRVANLPLVSSTYDLVSSAYVSTKDQYPYLRSVCEMAEKGVKTVTSAAMTSALPIIQKLEPQIAVANTYACKGLDRMEERLPILNQPTSEIVASARGAVTGAKDVVTTTMAGAKDSVASTVSGVVDKTKGAVTGSVERTKSVVNGSINTVLGMVQFMNSGVDNAITKSELLVDQYFPLTQEELEMEAKKVEGFDMVQKPSNYERLESLSTKLCSRAYHQALSRVKEAKQKSQETISQLHSTVHLIEFARKNMHSANQKIQGAQDKLYVSWVEWKRSIGYDDTDESHCVEHIESRTLAIARNLTQQLQTTCQTVLVNAQGLPQNIQDQAKHLGVMAGDIYSVFRNAASFKEVSDGVLTSSKGQLQKMKESLDEVMDYFVNNTPLNWLVGPFYPQSTEVNKASLKVQQSEVKAQ
On to B1, for which the binding entry in test [2] is on record as “binds”.
